According to paper PMC7477767:
These are yes or no findings as the source states them, for the method shown. Binding seen in cells or lysates may run through a third protein. Some binding calls cover weakened binding; strength is not graded here. For some assays here: Tags and fused reporters may be left off the sequences shown.

Sequences of proteins named here, by UniProt entry; tags and fusion partners are left off.
UniProt P35579: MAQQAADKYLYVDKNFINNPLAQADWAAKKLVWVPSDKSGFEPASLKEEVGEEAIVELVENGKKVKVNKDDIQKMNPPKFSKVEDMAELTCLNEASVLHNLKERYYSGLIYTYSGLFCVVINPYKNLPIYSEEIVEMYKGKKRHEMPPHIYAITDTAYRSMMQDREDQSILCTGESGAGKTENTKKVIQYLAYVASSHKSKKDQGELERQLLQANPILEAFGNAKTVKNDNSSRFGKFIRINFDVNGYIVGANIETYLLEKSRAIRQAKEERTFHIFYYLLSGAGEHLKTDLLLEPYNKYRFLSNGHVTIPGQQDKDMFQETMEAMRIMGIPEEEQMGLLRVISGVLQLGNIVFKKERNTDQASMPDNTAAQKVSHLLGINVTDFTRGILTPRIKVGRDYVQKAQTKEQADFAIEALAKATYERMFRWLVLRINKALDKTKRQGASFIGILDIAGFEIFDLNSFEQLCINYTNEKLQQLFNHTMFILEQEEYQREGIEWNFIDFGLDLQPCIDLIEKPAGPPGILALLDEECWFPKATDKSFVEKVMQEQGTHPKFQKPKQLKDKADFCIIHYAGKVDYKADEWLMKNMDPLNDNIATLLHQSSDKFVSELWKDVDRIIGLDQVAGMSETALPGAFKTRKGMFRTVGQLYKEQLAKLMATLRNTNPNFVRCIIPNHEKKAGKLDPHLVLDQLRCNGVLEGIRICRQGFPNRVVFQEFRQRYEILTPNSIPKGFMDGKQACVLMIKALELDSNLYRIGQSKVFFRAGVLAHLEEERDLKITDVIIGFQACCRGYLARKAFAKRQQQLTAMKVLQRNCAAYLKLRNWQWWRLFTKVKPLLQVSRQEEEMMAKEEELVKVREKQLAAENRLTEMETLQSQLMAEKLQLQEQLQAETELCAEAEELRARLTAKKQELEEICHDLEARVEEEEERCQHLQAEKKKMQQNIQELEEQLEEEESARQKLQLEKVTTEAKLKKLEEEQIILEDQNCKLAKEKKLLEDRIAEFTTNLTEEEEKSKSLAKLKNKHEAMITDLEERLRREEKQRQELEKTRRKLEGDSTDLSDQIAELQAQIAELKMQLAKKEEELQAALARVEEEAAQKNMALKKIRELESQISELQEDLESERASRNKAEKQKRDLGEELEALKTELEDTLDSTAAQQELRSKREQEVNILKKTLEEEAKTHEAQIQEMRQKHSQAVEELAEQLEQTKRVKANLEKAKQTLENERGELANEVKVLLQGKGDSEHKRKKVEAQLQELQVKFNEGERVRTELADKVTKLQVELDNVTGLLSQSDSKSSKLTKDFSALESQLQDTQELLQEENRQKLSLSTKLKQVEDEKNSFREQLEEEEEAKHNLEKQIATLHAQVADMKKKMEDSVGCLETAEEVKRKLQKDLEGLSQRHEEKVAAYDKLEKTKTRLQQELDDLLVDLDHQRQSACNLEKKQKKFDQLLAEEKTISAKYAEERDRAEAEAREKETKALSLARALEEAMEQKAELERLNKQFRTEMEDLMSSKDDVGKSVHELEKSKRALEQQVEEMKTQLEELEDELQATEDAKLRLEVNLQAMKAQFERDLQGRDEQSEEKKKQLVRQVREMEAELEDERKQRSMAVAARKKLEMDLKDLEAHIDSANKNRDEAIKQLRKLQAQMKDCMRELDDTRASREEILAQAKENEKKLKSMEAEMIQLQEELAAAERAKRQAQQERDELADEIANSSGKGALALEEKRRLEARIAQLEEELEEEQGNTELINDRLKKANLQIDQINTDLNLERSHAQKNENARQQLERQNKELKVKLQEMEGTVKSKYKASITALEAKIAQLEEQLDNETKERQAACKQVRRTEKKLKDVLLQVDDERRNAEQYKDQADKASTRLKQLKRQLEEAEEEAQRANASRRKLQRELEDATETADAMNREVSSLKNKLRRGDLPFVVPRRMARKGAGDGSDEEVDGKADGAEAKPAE

Tests used:
[1] = biological target: T1, CRLF1 (Cytokine Receptor-Like Factor 1), endogenous (human (endogenous in BCPAP)) (UniProt O75462); experiment: co-IP; endogenous CRLF1 and MYH9 in BCPAP cells; precipitating antibody not told; immunoblotting
T1 sequence: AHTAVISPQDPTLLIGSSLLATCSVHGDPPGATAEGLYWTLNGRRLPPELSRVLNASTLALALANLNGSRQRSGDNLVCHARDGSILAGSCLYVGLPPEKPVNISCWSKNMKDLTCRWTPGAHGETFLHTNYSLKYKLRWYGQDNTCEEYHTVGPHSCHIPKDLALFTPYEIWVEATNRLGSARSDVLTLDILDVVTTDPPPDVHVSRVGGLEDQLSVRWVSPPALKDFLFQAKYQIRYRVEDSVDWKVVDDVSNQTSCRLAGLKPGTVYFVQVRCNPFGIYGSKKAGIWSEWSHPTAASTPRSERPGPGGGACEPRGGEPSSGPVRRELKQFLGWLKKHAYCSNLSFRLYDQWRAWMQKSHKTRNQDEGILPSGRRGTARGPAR

[2] = biological target: T2, FLAG-tagged CRLF1 (Cytokine Receptor-Like Factor 1) (UniProt O75462); experiment: co-IP; exogenous FLAG-CRLF1 and His-MYH9 in IHH4 cells; antibodies against FLAG or His, rabbit IgG as control, protein A/G agarose, 4°C; lysis buffer 20 mM Tris-HCl pH 7.5, 150 mM NaCl, 1% Nonidet P-40, 1% sodium deoxycholate; immunoblotting
T2 sequence: T1 sequence

## MYH9 (non-muscle myosin heavy-chain IIA protein), endogenous (from UniProt P35579 1-1960)
[1]
  binding: binds

## His-tagged MYH9 (from UniProt P35579 1-1960)
[2]
  binding: binds
